# Reference: PubChem BioAssay AID2417 (National Center for Advancing Translational Sciences (NCATS), 2010)
# The campaign covered roughly 140,000 compounds. About 4,300 (3.1%) were called active. This list was built around the results that the source calls inconclusive (neither active nor inactive); the mix of calls is not that of the screen.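 The calls were made as follows: active = readout at or below -70, meaning at least 70% loss of cells showing the perinucleolar compartment, a nuclear body marking cancer cells; inconclusive = readout between -30 and a set limit; inactive = the rest.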
# Experiment: High Content Assay for Compounds that inhibit the Assembly of the Perinucleolar Compartment;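 also: plate controls were DMSO wells for no effect and camptothecin positive control wells for full effect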
# Details: PC3M PTB-GFP, PNC prevalence imaging, 16 h; at 10 µM; active compounds read low
# Outline: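 PC3M cells stably expressing PTB-GFP, 750–1000 cells/well, treated 16 h at 37 °C with compound (23 nl of library stock), in duplicate. After paraformaldehyde fixation and Hoechst stain, imaged at 20x; PNC prevalence scored by image analysis.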
row,Compound,"activity change (PNC), negative = inhibition"
1,COC(=O)c1ccccc1NC(=O)C1CCCN(S(=O)(=O)c2ccc(F)cc2)C1 (stereo unspecified),active: -89.1%
2,Cc1cccc(C)c1NC(=O)COC(=O)c1ccccc1Nc1ccccc1,inconclusive: -46.6%
3,CCCc1cc(=O)n2c([nH]c3ccccc32)c1C#N,inconclusive: -53.1%
4,COc1cc(NS(=O)(=O)c2ccc(NC(=S)NC(=O)c3sc4ccccc4c3Cl)cc2)ncn1,inconclusive: -36.6%
5,COc1ccc(/C=C(\C#N)C(=O)NC2CCS(=O)(=O)C2)cc1OC (stereo unspecified),active: -119%
6,CC(C)C(c1nnnn1C1CCCC1)N1CCN(C(=O)c2ccco2)CC1 (stereo unspecified),inconclusive: -51.1%
7,O=C(Nc1nnc(SCc2ccc(Cl)cc2Cl)s1)C1COc2ccccc2O1 (stereo unspecified),inactive: 43%
8,COc1ccc(NCC(=O)N/N=C/C=C\c2ccccc2)cc1,inconclusive: -31.2%
9,c1ccc(Cc2nnc3sc(-c4ccncc4)nn23)cc1,inconclusive: -40.4%
10,N#CCSc1nc2ccccc2c(=O)n1-c1ccccc1,inconclusive: -49.3%
11,O=C(CC1SC(=Nc2ccccc2)N(CCc2ccccn2)C1=O)Nc1ccc(F)cc1 (stereo unspecified),inconclusive: -35%
12,COc1ccc(Cl)cc1NC(=O)COC(=O)/C=C/c1c(C)nn(C2CCS(=O)(=O)C2)c1Cl (stereo unspecified),inactive: 1.13%
13,COCCCNC(=O)CCNS(=O)(=O)c1ccc(C)cc1,inconclusive: -34.2%
14,COC(=O)c1ccc(Oc2nc(Nc3ccccc3)nc(N(C)C)n2)cc1,inconclusive: -60.9%
15,COc1ccc(-c2csc3ncnc(NCCN4CCOCC4)c23)cc1,inactive: 8.15%
16,COc1ccc(NC(=O)c2sc(SC)nc2N)cc1,inactive: 3%
17,CCOC(=O)c1c(N/N=C/c2ccncc2)n[nH]c1C,inactive: 28%
18,O=C(CSc1ncccn1)Nc1ccc(S(=O)(=O)N2CCCCC2)cc1,inactive: 83.5%
19,COc1ccccc1C(=O)Nc1ccc(C(=O)N2CCCC2)cc1,inconclusive: -46.5%
20,CCCCn1c(SCc2nc3ccccc3s2)nc2ccccc2c1=O,inactive: 14.4%
21,O=C(CSc1nc(O)c(C2CCCCC2)c(=O)[nH]1)Nc1ccc(Cl)cc1,active: -112%
22,Cc1ccc(Nc2nc(Cl)nc(N(C)C#N)n2)cc1,inconclusive: -34.7%
23,CC(C)(C)c1cc(C(=O)NCC(=O)OCC(=O)c2cccc([N+](=O)[O-])c2)cc(C(C)(C)C)c1,inconclusive: -59.8%

row,Compound,"activity change (PNC), negative = inhibition"
1,CN(CC(=O)N1CC=C(c2ccccc2)CC1)S(=O)(=O)c1cnc[nH]1,inconclusive: -49.3%
2,CCN(CC)S(=O)(=O)c1cccc(-c2nnc(SCC(=O)NC3CCCCCCC3)n2N)c1,inactive: 3.15%
3,COc1cc(/C=C/c2ccc3cccc(OC)c3n2)c(OC(C)=O)c([N+](=O)[O-])c1,inactive: 2.4%
4,CC1CCCCC1NC(=O)C1CCN(C(=O)c2sccc2-n2cccc2)CC1 (stereo unspecified),inconclusive: -32.6%
5,Cc1c(Cc2ccccc2)sc(/N=C/c2ccc3ccccc3c2)c1C(N)=O,active: -103%
6,COc1ccc(Cl)cc1C(=O)CSc1nnnn1C1CCCCC1,inconclusive: -65.7%
7,CSc1nc2nc(C)cc(-c3ccccc3)n2n1,inconclusive: -67.9%
8,CC(C)c1[nH]nc2c1C(c1ccc(OC(=O)c3ccco3)cc1)C(C#N)=C(N)O2 (stereo unspecified),inactive: 13.4%
9,O=C(O)CN1C(=O)SC(Nc2ccccc2C(=O)O)C1=O (stereo unspecified),inactive: -0.878%
10,CCCCN1C2CCCC1CC(NC(=O)C1CCCCC1)C2 (stereo unspecified),inactive: 21.1%
11,CC(C)NCC(O)COCCOc1ccc(C(C)(C)C)cc1 (stereo unspecified),inconclusive: -58.9%
12,CC(CN1CCOCC1)OC(=O)COc1ccc(F)cc1 (stereo unspecified),inconclusive: -71%
13,CCOC(=O)Nc1cc(C)ccc1OC,inactive: -7.82%
14,CC1=C(C(=O)OC(C)C)C(C2CC=CCC2)NC(=O)N1 (stereo unspecified),inconclusive: -49.9%
15,O=S(=O)(N1CCCCC1)N1CCN(c2ccccc2F)CC1,inconclusive: -34%
16,COc1ccc(/C=C/C(=O)N2c3ccccc3Sc3ccc(C(F)(F)F)cc32)cc1,inconclusive: -61.2%
17,Cc1ccc(N2N=C(c3ccc(Br)cc3)CCC2=O)cc1,inconclusive: -34.7%
18,O=C(Nc1ccc(Cl)c(Cl)c1)Nc1nnc(CC2=CCCCC2)s1,inconclusive: -48%
19,O=C(NC12CC3CC(CC(C3)C1)C2)c1cccnc1,inconclusive: -42.7%
20,COc1ccc(CN2CCN(C)CC2)cc1OCc1ccccc1,inconclusive: -51%
21,COc1ccc(NC(=O)CSc2nnc(C3CCCCC3)n2-c2ccccc2)cc1,inconclusive: -31.3%
22,CC(C)C(NS(=O)(=O)c1ccc2c(c1)oc(=O)n2C)C(=O)N1CCN(c2ccccc2F)CC1 (stereo unspecified),inactive: 24%
23,O=C(c1cccc(-c2nnc(-c3ccccc3)o2)c1)N1CCCCCC1,inconclusive: -63.9%

row,Compound,"activity change (PNC), negative = inhibition"
1,CCCN(Cc1ccc(N(CC)CC)cc1)CC1CC1,inconclusive: -30.3%
2,c1ccc(-c2cc(N3CCCCC3)ncn2)cc1,inconclusive: -43%
3,COC(=O)c1ccccc1NC(=O)CSc1ccccc1,inconclusive: -62.6%
4,CCOC(=O)C1(C)NC(c2cc(OC)c(OC)c(OC)c2)C2C(=O)N(CC)C(=O)C21 (stereo unspecified),inconclusive: -33.4%
5,CCC(=O)Nc1cccc(NC(=O)CSc2nnc(C3CC3)n2C)c1,inactive: 29.7%
6,O=C(Oc1ccc2c(c1)O/C(=C\c1ccncc1)C2=O)c1ccccc1,inconclusive: -68.6%
7,Cc1cccc(OCCn2c(=S)[nH]c3ccccc32)c1,inconclusive: -38.1%
8,CCOc1cccc2cc(-c3csc(NC(=O)CCC(=O)N4CCC(C)CC4)n3)c(=O)oc12,inconclusive: -32.8%
9,CCOP(=O)(OCC)C(NC(=O)Nc1ccc(Cl)c(Cl)c1)c1ccccc1 (stereo unspecified),inconclusive: -74%
10,Cc1ccc(C)n1NC(=O)c1ccc(O)cc1,inconclusive: -65.1%
11,O=C(O)c1c(Cl)c(Cl)c(Cl)c(Cl)c1C(=O)N1CCOCC1,inconclusive: -31.4%
12,COCCCNC(=O)CCCn1c(=O)[nH]c2ccccc2c1=O,inconclusive: -31.1%
13,CCCC1c2ccc(C)n2CCN1C(=O)Nc1ccccc1Cl (stereo unspecified),inconclusive: -41.7%
14,CNc1oc(-c2ccccc2)nc1C#N,inconclusive: -59.3%
15,COCCN1C(=O)c2ccc(C(=O)Nc3nccs3)cc2C1=O,active: -111%
16,OC(Cn1cccn1)c1ccccc1 (stereo unspecified),inconclusive: -61.2%
17,CC(=O)Nc1cc2c(cc1C(=O)c1ccccc1)OCCO2,inactive: -17.3%
18,CCCS(=O)(=O)c1nc(S(=O)(=O)c2ccc(C)cc2)c(NCCN2CCOCC2)s1,active: -107%
19,O=C(N1CCOCC1)n1nnc2ccccc21,inconclusive: -37.4%
20,COC(=O)Cc1c(C)nc2nc(NCc3ccccc3OC)[nH]n2c1=O,inconclusive: -31.2%
21,CC1=NN(Cc2ccccc2)C(=O)C1C(c1ccc(Cl)cc1)C(C#N)C#N (stereo unspecified),inactive: -14.4%
22,CCC(C)NC(=O)CSc1ncccc1C(=O)O (stereo unspecified),inconclusive: -56.1%
23,COc1cccc(C2N(c3ccccn3)C(=O)C3CCCN32)c1OC (stereo unspecified),inconclusive: -33.5%

# An excerpt of these results, tab-delimited:
row	Compound	activity change (PNC), negative = inhibition
2	c1ccc(-c2cc(N3CCCCC3)ncn2)cc1	inconclusive: -43%
3	COC(=O)c1ccccc1NC(=O)CSc1ccccc1	inconclusive: -62.6%
4	CCOC(=O)C1(C)NC(c2cc(OC)c(OC)c(OC)c2)C2C(=O)N(CC)C(=O)C21 (stereo unspecified)	inconclusive: -33.4%
5	CCC(=O)Nc1cccc(NC(=O)CSc2nnc(C3CC3)n2C)c1	inactive: 29.7%
6	O=C(Oc1ccc2c(c1)O/C(=C\c1ccncc1)C2=O)c1ccccc1	inconclusive: -68.6%

# Later entries.

row,Compound,"activity change (PNC), negative = inhibition"
1,CCN(CC)C(=O)c1c([N+](=O)[O-])c(C(C)(C)C)nn1C,inconclusive: -34.6%
2,CCCCNC(=O)CNC(=O)c1cccs1,inconclusive: -33.4%
3,COCCn1c(=NC(=O)c2ccc(S(=O)(=O)N3CCCc4ccccc43)cc2)sc2cc(S(C)(=O)=O)ccc21,inconclusive: -32.5%
4,Cc1cc(C(=O)N/N=C/c2cc(Br)cc(Br)c2OC(=O)c2ccccc2)n[nH]1,inconclusive: -31.5%
5,Cn1c(=O)c2c(ncn2CC(=O)OCC(=O)Nc2ccccc2Cl)n(C)c1=O,inconclusive: -35%
6,Cc1cc(NC(=O)C2CCCN(S(=O)(=O)c3c(C)noc3C)C2)n[nH]1 (stereo unspecified),inconclusive: -32.9%
7,COc1ccc(CCNC(=O)c2ccc(CS(=O)(=O)c3ccc(Cl)cc3)o2)cc1OC,inactive: 60.9%
8,CC(=O)Nc1ccccc1-c1nc2ccc(C(=O)N3CCN(c4ccccc4)CC3)cc2[nH]c1=O,inactive: 143%
9,CC(C)[C@H](NC(=O)Nc1ccc2c(c1)OCCO2)C(=O)O,inconclusive: -32.7%
10,CCCCc1[nH]nc2c1C1(C(=O)N(CC)c3ccccc31)C(C#N)=C(N)O2 (stereo unspecified),inactive: 29.7%
11,O=C(Nc1ccccc1)OC1CCC2CC1CCC2OC(=O)Nc1ccccc1 (stereo unspecified),inconclusive: -41.5%
12,N#Cc1c(-c2ccccc2)c(-c2ccccc2)n(Cc2ccco2)c1NC(=O)c1cccs1,inconclusive: -44.2%
13,O=C(Oc1ccc(F)cc1C(=O)/C=C/c1cccs1)c1cccc([N+](=O)[O-])c1,inconclusive: -30.7%
14,COc1ccc(/C=C2/SC(c3ccc(C)cc3)=NC2=O)cc1OC,inactive: -8.36%
15,CSc1nc(-c2ccco2)nn1C(=O)c1ccccc1,inactive: -3.77%
16,Cc1cccc(C)c1NC(=S)N(c1ccccc1)C(C)C,inconclusive: -33.1%
17,c1ccc(N2CCOCC2)c(Nc2nc3ccccc3n3cnnc23)c1,inconclusive: -66.4%
18,CC1(C(=O)N(CC(=O)NC2CCCC2)C2CCCC2)CC(=O)N=C2C=CC=CN21 (stereo unspecified),inactive: -20.4%
19,Cc1ccc(-c2cc(C(=O)N/N=C/c3cccnc3)n[nH]2)o1,active: -106%
20,CCOC(=O)N1CCN(C(=O)c2csc3c2CCCCC3)CC1,inconclusive: -67.6%
21,CC1=CC(C)(C)Nc2ccc(OC(=O)C(C)N3C(=O)c4ccccc4C3=O)cc21 (stereo unspecified),inactive: -1.52%
22,O=C1C2C3C=CC(C3)C2C(=O)N1c1ccc2c(c1)OCO2 (stereo unspecified),inactive: -12.9%
